# Source: PubChem BioAssay AID493014 (National Center for Advancing Translational Sciences (NCATS), 2011)
# The list shows a part of the results. Shown are side measurements of this screen, not its main read-out; they come without a call. Compounds called inactive in the main read-out are mostly missing here. Potencies come from curve fits of mixed quality, noted in brackets.
# Experiment: qHTS Assay to Find Inhibitors of Chronic Active B-Cell Receptor Signaling
# Conditions: ABC-DLBCL IkBa-CBG/CBR reporter, luminescence ratio (green luciferase fused to IkBa over red control in TMD8 lymphoma cells), 4 h
# How it was run: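 Cell line TMD8 (human ABC DLBCL), stably expressing tet-inducible CBG68-IkBa fusion and CBR; IMDM/0.5% FBS; cpd up to 46 uM; dox induction, 4 h, 37C/5% CO2; dual luminescence; green/red ratio; MG132 control.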
# [1] = measured here: CBR red luminescence, cell number
# [2] = measured here: IkBa-CBG green luminescence
Structure (SMILES),AC50 [1],AC50 [2]
Nc1c(S(=O)(=O)c2cccs2)c2nc3ccccc3nc2n1/N=C/c1cccc(O)c1,"10 µM [falling, partial curve, poor fit]","12.6 µM [rising, partial curve, poor fit]"
COc1ccc(C2=NN(c3nc(C(=O)O)cs3)C(O)(C(F)(F)F)C2)c(OC)c1 (configuration not stated),"2.51 µM [rising, full curve]",
COc1ccc(N2CCN(C3CCCN(C(=O)c4cccc(C)n4)C3)CC2)cc1 (configuration not stated),"8.91 µM [rising, partial curve, poor fit]",
CC1SCC(NC(=O)c2cccc(Cl)c2)CS1 (configuration not stated),"11.2 µM [rising, partial curve]",
O=C(CN(c1cccc(C(F)(F)F)c1)S(=O)(=O)c1ccc(Cl)c([N+](=O)[O-])c1)NCc1ccc(F)cc1,"16.4 µM [falling, partial curve]","14.6 µM [rising, partial curve, poor fit]"
O=[N+]([O-])c1ccc(Cl)c(S(=O)(=O)n2ccnc2)c1,"7.94 µM [falling, partial curve]",
CCOC(=O)C1CCN(C(=O)CN2C(=O)c3ccccc3S2(=O)=O)CC1,"3.26 µM [rising, partial curve, poor fit]",
CC1CCN(CC(=O)Nc2ccc(Cl)cc2[N+](=O)[O-])CC1,"25.1 µM [rising, single point]",
CN(C)c1ccc(/C=N/NC(=O)CCCCCNC(=O)c2ccccc2)cc1,"11.2 µM [falling, partial curve]",
CCCS(=O)(=O)N1CCCC(C(=O)NCCc2ccccc2)C1 (configuration not stated),"6.31 µM [rising, single point]",
O=C(Nc1ccc(Cl)cc1C(F)(F)F)C(Sc1cccc[n+]1[O-])c1ccccc1 (configuration not stated),"35.5 µM [falling, single point]","35.5 µM [falling, single point]"
C/C(=C\c1ccccc1)C(=O)NCCCn1ccnc1,"1.78 µM [rising, full curve, poor fit]",
CC1(C)CC(=O)C(N=Nc2cccc([N+](=O)[O-])c2)=C(O)C1,"10 µM [falling, partial curve, poor fit]",
CCOc1ccccc1-n1c(CN2CCN(C(=O)c3ccco3)CC2)nc2ccccc2c1=O,"29.1 µM [falling, single point]","20.6 µM [rising, partial curve, poor fit]"
Cc1cc(C)n(-c2ncc(-c3ccccc3)nn2)n1,"29.1 µM [falling, single point]",
Cc1cc([N+](=O)[O-])ccc1NC(=S)NC(=O)C(c1ccccc1)c1ccccc1,"0.517 µM [falling, full curve, poor fit]",
CCn1c(Sc2ccc([N+](=O)[O-])cn2)nnc1-c1ccco1,,"20 µM [falling, single point]"
CCc1nc(Nc2ccc(O)cc2)c2oc3ccccc3c2n1,"11.2 µM [falling, partial curve, poor fit]",
Cc1coc2cc3oc(=O)c(CCC(=O)NCc4ccccn4)c(C)c3cc12,"6.31 µM [rising, single point]",
Cc1cccc(C(=O)NNC(=O)c2ccccc2Br)c1,"3.98 µM [falling, full curve]",

Structure (SMILES),AC50 [1],AC50 [2]
O=C(O)CCC(NS(=O)(=O)c1ccc(-c2ccccc2)cc1)C(=O)O (configuration not stated),"0.0326 µM [falling, full curve, poor fit]",
O=C1C=C(Nc2cccc(O)c2)CC(c2ccco2)C1 (configuration not stated),"4.61 µM [falling, full curve]",
C=CCOC(=O)c1ccc(N2CCN(c3ccccc3)CC2)nc1,"0.355 µM [rising, partial curve, poor fit]",
COc1cc(C(=O)NC(=S)Nc2csc(-c3ccc(F)cc3)n2)cc(OC)c1OC,"12.6 µM [rising, single point]",
Cc1cccc(-c2nc(Nc3ccc(N4CCOCC4)cc3)c3ccccc3n2)c1,"29.1 µM [falling, single point]",
CC[C@]12c3[nH]c4cc(CCC(=O)N(C)C)ccc4c3CCN1C(=O)[C@@H](CC(=O)NCCC1=CCCCC1)C[C@@H]2C(=O)N1CCN(C(=O)c2ccco2)CC1,"18.4 µM [rising, single point]","20.6 µM [falling, single point]"
COc1ccc(NC(=O)CN(C)C(=O)c2cccc(S(=O)(=O)N3CCCc4ccccc43)c2)cc1,"0.82 µM [rising, full curve, poor fit]",
O=[N+]([O-])c1cc(S(=O)(=O)N2CCCCC2)ccc1NCCCN1CCOCC1,"0.112 µM [falling, full curve, poor fit]",
Cc1cccc(C2c3[nH]c4ccccc4c3CCN2C(=O)c2cn(C)c3ccccc3c2=O)n1 (configuration not stated),,"11.2 µM [falling, partial curve, poor fit]"
CC1CCC/C(=C\Nc2ccccc2C(=O)O)C1=O (configuration not stated),"2.82 µM [falling, full curve]",
O=C(CN1C(=O)CSc2ccc(C(F)(F)F)cc21)Nc1ccccc1,"35.5 µM [rising, single point]",
C[C@H](CO)N1C[C@H](C)[C@@H](CN(C)C(=O)Nc2ccc(C(F)(F)F)cc2)Oc2c(NC(=O)CCC(F)(F)F)cccc2C1=O,"0.731 µM [rising, full curve, poor fit]",
CCc1ccccc1NC(=O)COc1ccc2c(c1)OCO2,"7.94 µM [falling, partial curve]",
Cc1ccccc1/C=C\c1nc2ccccc2c(=O)n1Cc1ccccc1,"25.9 µM [falling, single point]",
CC(=O)c1c(C(C)=O)c(C)n(C(c2ccccc2)c2ccccc2)c1C,"20 µM [falling, single point]",
Cc1ccc(C2=NNC(=O)C(c3c[nH]c4ccccc34)C2)cc1 (configuration not stated),"1.26 µM [falling, full curve, poor fit]",
O=C(Nc1ccc2c(c1)oc1ccccc12)c1cccnc1,"12.6 µM [falling, single point]",
CNC(=S)N/N=C/c1ccc(-c2ccc(C(=O)O)cc2)o1,"3.55 µM [falling, partial curve]",
O=C(NC1CCCC1)C(=O)c1c[nH]c2ccccc12,"1 µM [falling, full curve]",
COc1cccc2cc(C(=O)Nc3ccc(F)cc3)c(=Nc3ccc(C(=O)O)cc3)oc12,"1.78 µM [falling, full curve]",

# Single values from the results shown:
# Entry of `O=C(O)CCC(NS(=O)(=O)c1ccc(-c2ccccc2)cc1)C(=O)O` (configuration not stated) under AC50 [1]: 0.0326 µM [falling, full curve, poor fit]
# Entry of `O=[N+]([O-])c1cc(S(=O)(=O)N2CCCCC2)ccc1NCCCN1CCOCC1` under AC50 [1]: 0.112 µM [falling, full curve, poor fit]
# Entry of `CC1CCC/C(=C\Nc2ccccc2C(=O)O)C1=O` (configuration not stated) under AC50 [1]: 2.82 µM [falling, full curve]

# Later entries

Structure (SMILES),AC50 [1],AC50 [2]
COc1cc(SC)ccc1C(=O)Nc1cccc(S(=O)(=O)NC2=NCCCCC2)c1,"20.6 µM [falling, single point]",
O=C(CNC(=O)c1ccc(Cl)cc1Cl)OCc1nc2ccccc2s1,"0.231 µM [rising, full curve, poor fit]",
CC(Sc1nnc(Nc2ccccc2)s1)C(=O)NC1CCCc2ccccc21 (configuration not stated),"2.06 µM [rising, full curve]",
O=C(NNC(=O)C1C2C=CC(C2)C1C(=O)O)c1ccccc1O (configuration not stated),"2 µM [falling, full curve]",
N#Cc1nc(COc2ccccc2Cl)oc1NCc1cccnc1,"6.31 µM [falling, single point]",
Cc1ccc(C(=O)Oc2ccc(C(=S)N3CCOCC3)cc2)cc1,"17.8 µM [rising, partial curve, poor fit]",
O=C(CSc1nnc(-c2ccncc2)o1)Nc1cc(F)ccc1F,"9.2 µM [falling, partial curve, poor fit]",
COC(=O)c1ccc2nc(NC(=O)CCS(=O)(=O)c3ccccc3)sc2c1,"1.58 µM [falling, full curve, poor fit]",
COCC(=O)N(Cc1ccccc1)c1ccccn1,"0.146 µM [rising, full curve, poor fit]",
O=C(N/N=C/C(Br)=C/c1ccccc1)c1n[nH]c2c1CCC2,"1.16 µM [rising, full curve, poor fit]","1.03 µM [falling, full curve]"
COc1ccc(/C=N/N=C2\SC(CC(=O)O)C(=O)N2c2ccccc2)c(OC)c1 (configuration not stated),"14.6 µM [falling, partial curve, poor fit]",
C/C(=N\NC(=O)c1ccccc1O)C1C(=O)c2ccccc2C1=O,"1.84 µM [falling, full curve, poor fit]",
COc1cccc(-c2noc(CCCC(=O)Nc3ccc(C(N)=O)cc3)n2)c1,"5.62 µM [rising, partial curve]","1.26 µM [rising, full curve, poor fit]"
COc1ccc(Cl)cc1NC(=O)CSc1nc(C)cc(C)n1,"11.2 µM [rising, partial curve, poor fit]",
CC(=O)Nc1ccc(S(=O)(=O)Nc2nc3ccccc3s2)cc1,"32.6 µM [rising, single point]",
COc1cccc(NC(=O)c2nc(S(C)(=O)=O)ncc2Cl)c1,"7.94 µM [falling, partial curve, poor fit]",
COc1ccc2nc(NC(=O)C(NS(=O)(=O)c3cccs3)C(C)C)sc2c1 (configuration not stated),"5.8 µM [falling, single point]",
COc1ccc(N(CC(=O)NCCSc2ccccn2)S(=O)(=O)c2ccccc2)cc1Cl,"35.5 µM [falling, single point]",
O=C(Nc1ccccc1Cl)C1CCN(Cc2cnn(-c3ccccc3)c2-n2cccc2)CC1,"20.6 µM [rising, partial curve, poor fit]",
COc1cccc(-c2nnc(NC(=O)c3ccc(Cl)s3)o2)c1,"2.59 µM [falling, full curve]",
